Laboratory results as given in article PMC2361459, “Safety, tolerability and pharmacokinetics of intravenous ghrelin for cancer-related anorexia/cachexia: a randomised, placebo-controlled, double-blind, double-crossover study” (British Journal of Cancer, 2008).
Like-named read-outs stand apart in the source and are kept apart here.

Test system: patients with advanced incurable cancer and anorexia/cachexia

Question: With `CCCCCCCC(=O)OC[C@H](NC(=O)[C@H](CO)NC(=O)CN)C(=O)N[C@@H](Cc1ccccc1)C(=O)N[C@@H](CC(C)C)C(=O)N[C@@H](CO)C(=O)N1CCC[C@H]1C(=O)N[C@@H](CCC(=O)O)C(=O)N[C@@H](Cc1c[nH]cn1)C(=O)N[C@@H](CCC(N)=O)C(=O)N[C@@H](CCCNC(=N)N)C(=O)N[C@H](C(=O)N[C@@H](CCC(N)=O)C(=O)N[C@@H](CCC(N)=O)C(=O)N[C@@H](CCCNC(=N)N)C(=O)N[C@@H](CCCCN)C(=O)N[C@@H](CCC(=O)O)C(=O)N[C@@H](CO)C(=O)N[C@@H](CCCCN)C(=O)N[C@@H](CCCCN)C(=O)N1CCC[C@H]1C(=O)N1CCC[C@H]1C(=O)N[C@@H](C)C(=O)N[C@@H](CCCCN)C(=O)N[C@@H](CC(C)C)C(=O)N[C@@H](CCC(N)=O)C(=O)N1CCC[C@H]1C(=O)N[C@@H](CCCNC(=N)N)C(=O)O)C(C)C` [ghrelin] as the compound, how does the “patients who preferred ghrelin to placebo” value (at the end of study, both dose groups) read?
Answer: The value was 63%.

Question: What about the “treatment preference (VAS 0–100), median (min, max)” value (“treatment preference” below) (day 7, lower dose, sequence G-P, low numbers = prefers first treatment) of the same compound?
Answer: The value was 42 (3, 66).

Question: What about the “treatment preference” value (day 7, lower dose, sequence P-G, high numbers = prefers second treatment) of the same compound?
Answer: The value was 80 (49, 100).

Question: What about the “treatment preference” value (day 7, upper dose, sequence G-P, low numbers = prefers first treatment) of the same compound?
Answer: The value was 45 (2, 96).

Question: And the “treatment preference” value (day 7, upper dose, sequence P-G, high numbers = prefers second treatment)?
Answer: The value was 77 (54, 100).

Question: And the “treatment preference” value (end-of-study, lower dose, sequence G-P-G-P, low numbers = prefers first and third treatment)?
Answer: Its value is 20 (10, 99).

Question: What about the “treatment preference” value (end-of-study, lower dose, sequence P-G-P-G, high numbers = prefers second and fourth treatment) of the same compound?
Answer: The value was 54 (5, 100).

Question: What about the “treatment preference” value (end-of-study, upper dose, sequence G-P-G-P, low numbers = prefers first and third treatment) of the same compound?
Answer: The value was 69 (56, 94).

Question: And the “treatment preference” value (end-of-study, upper dose, sequence P-G-P-G, high numbers = prefers second and fourth treatment)?
Answer: The value was 83 (56, 100).
